Results deposited as PubChem BioAssay AID1159578 (Peter MacCallum Cancer Centre, 2015)

- Assay: 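Genome-wide hunt for genes controlling movement of lymphatic endothelial cells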 (primary screen)
- Cells: human lymphatic endothelial cells
- Reagent: siRNA pool against human genes, 40 nM
- Duration: 48 h after transfection
- Measured: 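Cells stained with dye and imaged after a scratch; covered wound area and nuclei counted, duplicates averaged, migration set against mock wells and turned into a robust z-score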
- Reading the numbers: migration robust z-score: higher = faster migration into the scratch; nuclei per well: higher = more cells in the well
- Rule for the call: 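Migration changed when robust z exceeds 2 or falls below -2 and mean nuclei number is at least 3300; otherwise not called changed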
- Calls: active = migration changed; inactive = no migration change, or too few cells
In all, the deposit lists about 18,000 reagents; this is a part drawn at random. Of all reagents, about 1,030 (5.7%) are marked active. 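Inactive calls also include pools with fewer than 3300 nuclei, whose migration was not assessed.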 Raw values vary from plate to plate and are shown uncorrected. Further read-outs or replicates are left out here.

After knock-down of PPP1R12C (protein phosphatase 1 regulatory subunit 12C) the results were migration robust z-score -0.9; nuclei per well, duplicate mean 5318; inactive. Knock-down of POP7 (POP7 ribonuclease P/MRP subunit) came out at: migration robust z-score -2.29; nuclei per well, duplicate mean 4223; active. With knock-down of RNASE4 (ribonuclease A family member 4) the results were migration robust z-score 0.47; nuclei per well, duplicate mean 3850; inactive. ATP6V0E2 (ATPase H+ transporting V0 subunit e2) showed migration robust z-score -2.04; nuclei per well, duplicate mean 6696; active. Silencing of MRPL10 (mitochondrial ribosomal protein L10) resulted in: migration robust z-score 1.22; nuclei per well, duplicate mean 5918; inactive.

Records above whose target name starts with P or p:
PPP1R12C (protein phosphatase 1 regulatory subunit 12C) | migration robust z-score: -0.9; nuclei per well, duplicate mean: 5318; Call: inactive
POP7 (POP7 ribonuclease P/MRP subunit) | migration robust z-score: -2.29; nuclei per well, duplicate mean: 4223; Call: active

Continued.
PRKG2 (protein kinase cGMP-dependent 2) scored migration robust z-score -3.27; nuclei per well, duplicate mean 4404; active. ASB17 (ankyrin repeat and SOCS box containing 17) gave migration robust z-score 1.04; nuclei per well, duplicate mean 5484; inactive. Against ACR (acrosin) the deposit lists migration robust z-score -1.03; nuclei per well, duplicate mean 5360; inactive. FAM153A (family with sequence similarity 153 member A) showed migration robust z-score 0.65; nuclei per well, duplicate mean 7206; inactive. With knock-down of QPCT (glutaminyl-peptide cyclotransferase), the record shows migration robust z-score 0.83; nuclei per well, duplicate mean 7988; inactive. Silencing of ABCC10 (ATP binding cassette subfamily C member 10) gave: migration robust z-score 0.46; nuclei per well, duplicate mean 5006; inactive.

Depletion of TRIM32 (tripartite motif containing 32) resulted in: migration robust z-score -1.79; nuclei per well, duplicate mean 5864; inactive. Against CARD6 (caspase recruitment domain family member 6), the values are migration robust z-score 1.02; nuclei per well, duplicate mean 6386; inactive. Depletion of GOLGA2 (golgin A2) came out at: migration robust z-score 1.73; nuclei per well, duplicate mean 5563; inactive.
